# Where a name gives a salt, the structure may show the parent alone. The list shows a part of the results. Hit calls seldom repeat between salt and free forms of one compound.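 In K562 cells expressing nanoluciferase-fused kinases, luminescence was recorded at 4 h intervals between 2 and 18 h, normalized as percent of control with DMSO at 100% and a positive control at 0%. A significant (2 sigma) signal drop marks a time point as decreased. The authors' rule for a hit is not shown and takes in more than the number of time points.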
# Protein sequences, listed by entry. Tags and fused reporters are not part of them. Lines headed by an entry give the natural chain unless they say otherwise; changes in a name come on top.
# UniProt P07949, whole entry, looked up: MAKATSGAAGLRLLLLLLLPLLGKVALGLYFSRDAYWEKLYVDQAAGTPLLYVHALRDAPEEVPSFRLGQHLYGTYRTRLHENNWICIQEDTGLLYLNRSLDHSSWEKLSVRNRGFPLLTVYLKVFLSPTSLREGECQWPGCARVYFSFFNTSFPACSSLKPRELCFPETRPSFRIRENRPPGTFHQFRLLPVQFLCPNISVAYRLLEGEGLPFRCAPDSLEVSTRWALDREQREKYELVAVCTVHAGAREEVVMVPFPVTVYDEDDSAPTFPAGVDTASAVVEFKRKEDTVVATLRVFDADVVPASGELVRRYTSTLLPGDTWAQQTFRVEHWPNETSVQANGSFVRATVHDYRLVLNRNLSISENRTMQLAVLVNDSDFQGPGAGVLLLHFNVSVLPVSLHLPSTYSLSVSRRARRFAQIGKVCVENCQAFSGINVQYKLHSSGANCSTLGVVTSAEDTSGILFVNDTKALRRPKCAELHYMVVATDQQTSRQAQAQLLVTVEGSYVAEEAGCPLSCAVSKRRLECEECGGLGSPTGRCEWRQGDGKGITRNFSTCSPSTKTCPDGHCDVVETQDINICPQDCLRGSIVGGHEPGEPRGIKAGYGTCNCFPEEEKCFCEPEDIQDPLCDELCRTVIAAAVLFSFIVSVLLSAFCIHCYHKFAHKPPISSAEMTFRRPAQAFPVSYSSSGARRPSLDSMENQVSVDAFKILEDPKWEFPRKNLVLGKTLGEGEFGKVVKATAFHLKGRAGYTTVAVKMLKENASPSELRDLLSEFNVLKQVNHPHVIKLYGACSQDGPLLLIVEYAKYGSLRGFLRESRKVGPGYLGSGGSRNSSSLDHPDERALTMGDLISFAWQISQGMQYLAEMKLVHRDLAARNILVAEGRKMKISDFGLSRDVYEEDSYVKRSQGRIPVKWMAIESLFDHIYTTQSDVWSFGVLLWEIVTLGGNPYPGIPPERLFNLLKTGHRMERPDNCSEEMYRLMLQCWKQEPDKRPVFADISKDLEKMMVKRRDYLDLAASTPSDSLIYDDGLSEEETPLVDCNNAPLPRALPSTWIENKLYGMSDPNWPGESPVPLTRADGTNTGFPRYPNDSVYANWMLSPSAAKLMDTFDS
# UniProt P07949, whole entry M918T, looked up: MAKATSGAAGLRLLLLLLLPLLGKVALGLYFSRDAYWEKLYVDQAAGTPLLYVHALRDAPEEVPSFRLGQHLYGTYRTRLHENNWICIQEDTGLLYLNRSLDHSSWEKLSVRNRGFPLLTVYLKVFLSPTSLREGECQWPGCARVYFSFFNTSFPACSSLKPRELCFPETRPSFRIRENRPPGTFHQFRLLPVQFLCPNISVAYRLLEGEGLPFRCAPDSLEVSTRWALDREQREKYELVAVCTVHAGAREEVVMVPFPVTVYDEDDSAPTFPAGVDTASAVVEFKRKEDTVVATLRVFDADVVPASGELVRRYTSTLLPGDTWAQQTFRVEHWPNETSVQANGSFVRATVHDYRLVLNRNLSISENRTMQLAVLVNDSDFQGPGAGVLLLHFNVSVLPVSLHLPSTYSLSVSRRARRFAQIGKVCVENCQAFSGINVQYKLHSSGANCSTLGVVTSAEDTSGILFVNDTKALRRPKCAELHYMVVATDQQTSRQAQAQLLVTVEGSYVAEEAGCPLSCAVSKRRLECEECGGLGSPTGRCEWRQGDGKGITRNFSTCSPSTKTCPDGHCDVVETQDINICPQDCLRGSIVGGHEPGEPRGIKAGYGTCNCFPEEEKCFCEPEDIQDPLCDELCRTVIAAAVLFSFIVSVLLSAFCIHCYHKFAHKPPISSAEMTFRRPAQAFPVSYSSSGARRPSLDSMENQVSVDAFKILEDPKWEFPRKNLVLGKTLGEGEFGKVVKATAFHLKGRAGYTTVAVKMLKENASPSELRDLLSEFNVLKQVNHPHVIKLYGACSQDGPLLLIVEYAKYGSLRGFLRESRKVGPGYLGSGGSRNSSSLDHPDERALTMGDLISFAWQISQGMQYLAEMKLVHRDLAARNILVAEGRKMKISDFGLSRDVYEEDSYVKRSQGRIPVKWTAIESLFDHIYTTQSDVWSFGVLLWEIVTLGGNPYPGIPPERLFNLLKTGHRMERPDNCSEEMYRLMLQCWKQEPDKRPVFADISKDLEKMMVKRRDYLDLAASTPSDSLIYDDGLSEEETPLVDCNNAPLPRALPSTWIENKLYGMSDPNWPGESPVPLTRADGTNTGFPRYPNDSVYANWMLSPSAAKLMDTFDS
# UniProt Q9BRS2: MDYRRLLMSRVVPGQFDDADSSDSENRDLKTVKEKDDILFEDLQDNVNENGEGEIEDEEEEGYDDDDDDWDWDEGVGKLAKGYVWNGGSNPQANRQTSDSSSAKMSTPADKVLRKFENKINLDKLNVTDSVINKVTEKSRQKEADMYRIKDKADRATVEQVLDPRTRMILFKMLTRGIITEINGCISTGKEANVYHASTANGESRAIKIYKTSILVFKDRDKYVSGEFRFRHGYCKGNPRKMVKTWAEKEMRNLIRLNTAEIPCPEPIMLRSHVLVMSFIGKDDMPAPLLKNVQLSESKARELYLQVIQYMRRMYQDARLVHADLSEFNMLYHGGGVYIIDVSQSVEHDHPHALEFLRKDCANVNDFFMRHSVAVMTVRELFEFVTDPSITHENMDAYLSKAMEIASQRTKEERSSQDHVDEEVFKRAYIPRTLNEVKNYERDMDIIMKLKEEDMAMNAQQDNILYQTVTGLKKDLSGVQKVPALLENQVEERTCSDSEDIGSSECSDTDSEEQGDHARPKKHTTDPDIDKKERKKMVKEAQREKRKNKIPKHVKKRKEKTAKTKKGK
# UniProt Q13546: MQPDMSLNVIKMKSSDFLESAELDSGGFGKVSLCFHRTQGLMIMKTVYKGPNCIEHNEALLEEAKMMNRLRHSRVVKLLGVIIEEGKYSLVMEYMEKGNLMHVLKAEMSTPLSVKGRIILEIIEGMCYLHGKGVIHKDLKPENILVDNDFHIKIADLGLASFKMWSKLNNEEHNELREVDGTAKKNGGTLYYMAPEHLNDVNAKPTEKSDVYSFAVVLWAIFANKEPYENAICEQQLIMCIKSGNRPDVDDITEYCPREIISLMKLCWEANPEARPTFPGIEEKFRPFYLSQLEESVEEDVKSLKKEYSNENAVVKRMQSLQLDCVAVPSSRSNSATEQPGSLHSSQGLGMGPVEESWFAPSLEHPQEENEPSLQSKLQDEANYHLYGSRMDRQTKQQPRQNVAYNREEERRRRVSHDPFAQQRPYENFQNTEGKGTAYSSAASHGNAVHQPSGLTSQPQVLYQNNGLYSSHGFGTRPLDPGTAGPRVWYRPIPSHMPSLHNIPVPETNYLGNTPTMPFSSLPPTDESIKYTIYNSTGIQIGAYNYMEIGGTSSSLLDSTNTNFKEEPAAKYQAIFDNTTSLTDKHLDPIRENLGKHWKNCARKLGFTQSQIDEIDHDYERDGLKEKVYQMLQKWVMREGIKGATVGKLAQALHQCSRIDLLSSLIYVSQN
# UniProt Q01974, whole entry: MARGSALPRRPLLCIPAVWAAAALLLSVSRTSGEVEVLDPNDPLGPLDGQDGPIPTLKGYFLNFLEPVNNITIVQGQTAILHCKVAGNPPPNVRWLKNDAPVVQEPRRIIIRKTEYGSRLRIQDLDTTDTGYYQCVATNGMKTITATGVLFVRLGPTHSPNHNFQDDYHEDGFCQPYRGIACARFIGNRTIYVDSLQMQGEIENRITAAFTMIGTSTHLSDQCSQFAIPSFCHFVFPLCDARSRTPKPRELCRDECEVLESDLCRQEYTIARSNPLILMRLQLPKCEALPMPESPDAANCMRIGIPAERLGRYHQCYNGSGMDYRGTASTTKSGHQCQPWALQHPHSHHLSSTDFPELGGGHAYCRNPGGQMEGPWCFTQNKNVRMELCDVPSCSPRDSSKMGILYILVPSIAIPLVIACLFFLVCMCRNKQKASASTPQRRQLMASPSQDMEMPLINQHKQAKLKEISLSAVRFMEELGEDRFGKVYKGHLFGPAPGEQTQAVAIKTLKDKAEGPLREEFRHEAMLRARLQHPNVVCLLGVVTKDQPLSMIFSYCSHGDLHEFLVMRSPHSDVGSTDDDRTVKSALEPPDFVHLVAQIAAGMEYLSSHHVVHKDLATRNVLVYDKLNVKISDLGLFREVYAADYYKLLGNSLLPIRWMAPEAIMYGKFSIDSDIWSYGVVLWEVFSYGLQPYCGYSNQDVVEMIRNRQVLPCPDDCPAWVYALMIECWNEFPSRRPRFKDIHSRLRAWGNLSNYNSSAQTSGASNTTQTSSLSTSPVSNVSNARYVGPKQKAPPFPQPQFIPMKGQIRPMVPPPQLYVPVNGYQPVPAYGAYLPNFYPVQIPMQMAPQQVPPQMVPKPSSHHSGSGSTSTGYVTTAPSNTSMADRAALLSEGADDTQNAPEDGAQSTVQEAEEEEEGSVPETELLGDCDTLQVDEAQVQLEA
# UniProt P42680: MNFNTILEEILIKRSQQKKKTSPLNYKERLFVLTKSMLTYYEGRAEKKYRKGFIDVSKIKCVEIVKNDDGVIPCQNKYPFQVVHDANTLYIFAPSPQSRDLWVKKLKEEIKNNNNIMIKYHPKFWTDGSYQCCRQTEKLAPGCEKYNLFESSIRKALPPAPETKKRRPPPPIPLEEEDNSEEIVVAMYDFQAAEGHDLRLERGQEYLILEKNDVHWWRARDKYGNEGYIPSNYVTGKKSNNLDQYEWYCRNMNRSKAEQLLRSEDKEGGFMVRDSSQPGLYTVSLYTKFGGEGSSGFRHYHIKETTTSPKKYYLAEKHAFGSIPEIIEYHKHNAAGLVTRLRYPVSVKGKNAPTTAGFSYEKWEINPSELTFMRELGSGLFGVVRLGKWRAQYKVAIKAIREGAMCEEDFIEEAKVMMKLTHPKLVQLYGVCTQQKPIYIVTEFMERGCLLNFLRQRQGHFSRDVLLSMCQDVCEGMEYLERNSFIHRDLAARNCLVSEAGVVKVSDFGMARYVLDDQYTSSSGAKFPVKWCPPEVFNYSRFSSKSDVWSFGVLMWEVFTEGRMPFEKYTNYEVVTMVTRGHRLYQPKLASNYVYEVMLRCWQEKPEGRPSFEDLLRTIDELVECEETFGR
# UniProt P29597: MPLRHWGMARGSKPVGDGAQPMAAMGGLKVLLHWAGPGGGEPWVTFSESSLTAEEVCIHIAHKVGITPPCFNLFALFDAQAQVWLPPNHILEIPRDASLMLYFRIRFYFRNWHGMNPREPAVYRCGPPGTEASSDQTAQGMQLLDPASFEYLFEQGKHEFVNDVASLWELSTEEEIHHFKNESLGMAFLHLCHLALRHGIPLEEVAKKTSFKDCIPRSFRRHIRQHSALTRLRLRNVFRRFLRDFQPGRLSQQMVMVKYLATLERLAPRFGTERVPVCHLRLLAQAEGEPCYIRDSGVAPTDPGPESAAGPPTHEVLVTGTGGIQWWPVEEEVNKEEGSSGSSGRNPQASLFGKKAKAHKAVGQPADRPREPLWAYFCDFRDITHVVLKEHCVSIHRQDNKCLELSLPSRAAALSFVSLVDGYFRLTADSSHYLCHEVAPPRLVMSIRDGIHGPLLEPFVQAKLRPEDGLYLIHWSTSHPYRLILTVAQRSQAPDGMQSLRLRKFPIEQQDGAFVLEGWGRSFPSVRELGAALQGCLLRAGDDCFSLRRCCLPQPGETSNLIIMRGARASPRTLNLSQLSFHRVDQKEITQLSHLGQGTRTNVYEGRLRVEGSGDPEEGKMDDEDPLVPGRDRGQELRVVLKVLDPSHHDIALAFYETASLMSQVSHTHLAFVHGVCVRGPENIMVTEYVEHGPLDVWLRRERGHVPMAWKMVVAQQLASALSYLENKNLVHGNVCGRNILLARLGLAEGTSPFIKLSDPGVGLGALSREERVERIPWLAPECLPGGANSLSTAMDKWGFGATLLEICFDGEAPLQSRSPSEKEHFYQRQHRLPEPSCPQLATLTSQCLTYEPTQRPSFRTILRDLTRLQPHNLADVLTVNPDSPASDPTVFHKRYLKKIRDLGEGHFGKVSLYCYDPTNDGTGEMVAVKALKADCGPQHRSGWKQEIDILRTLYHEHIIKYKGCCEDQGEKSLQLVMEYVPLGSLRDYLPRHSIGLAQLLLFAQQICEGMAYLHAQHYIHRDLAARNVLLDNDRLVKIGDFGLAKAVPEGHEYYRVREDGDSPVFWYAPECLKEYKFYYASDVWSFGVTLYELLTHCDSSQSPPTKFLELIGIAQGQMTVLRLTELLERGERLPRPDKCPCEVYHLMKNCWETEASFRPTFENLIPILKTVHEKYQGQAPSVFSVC
# UniProt P11802: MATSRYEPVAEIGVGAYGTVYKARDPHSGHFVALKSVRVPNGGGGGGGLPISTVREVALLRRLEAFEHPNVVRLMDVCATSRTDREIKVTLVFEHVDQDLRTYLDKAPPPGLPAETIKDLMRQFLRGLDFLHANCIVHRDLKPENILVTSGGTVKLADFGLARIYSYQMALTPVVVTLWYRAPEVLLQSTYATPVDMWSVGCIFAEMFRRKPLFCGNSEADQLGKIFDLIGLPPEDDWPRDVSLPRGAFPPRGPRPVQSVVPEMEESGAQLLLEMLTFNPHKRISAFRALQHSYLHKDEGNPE
# Experiments:
# Details in all cases: K562, 2-18 h
# RET = RET (UniProt P07949); assay: kinase-Nluc reporter destabilization hit call (1 = scored as downregulated) (binary); higher = compound decreases kinase abundance
# [1] = molecular target: RET_M918T (clone: RET_mut) (UniProt P07949); assay: as above
# RIOK1 = RIOK1 (UniProt Q9BRS2); assay: as above
# RIPK1 = RIPK1 (UniProt Q13546); assay: as above
# RIPK2 = RIPK2 (UniProt O43353); assay: as above
# ROR2 = ROR2 (UniProt Q01974); assay: as above
# RPS6KA1 = RPS6KA1 (UniProt Q15418); assay: as above
# SPHK1 = SPHK1 (UniProt Q9NYA1); assay: as above
# SRC = SRC (UniProt P12931); assay: as above
# STK24 = STK24 (UniProt Q9Y6E0); assay: as above
# STK38 = STK38 (UniProt Q15208); assay: as above
# SYK = SYK (UniProt P43405); assay: as above
# TEC = TEC (UniProt P42680); assay: as above
# TYK2 = TYK2 (UniProt P29597); assay: as above
# ULK3 = ULK3 (UniProt Q6PHR2); assay: as above
# YES1 = YES1 (UniProt P07947); assay: as above
# ZAK = ZAK (UniProt Q9NYL2); assay: as above
# ZAP70 = ZAP70 (UniProt P43403); assay: as above
# CDK4 = CDK4 (UniProt P11802); assay: number of time points (of 4; 2 h point missing) at which kinase-Nluc abundance scored as decreased, DMSO-normalised (count); higher = more persistent destabilization
# CDK7 = CDK7 (UniProt P50613); assay: as above
SMILES,kinase-Nluc reporter destabilization hit call (RET; 10 µM),kinase-Nluc reporter destabilization hit call ([1]; 10 µM),kinase-Nluc reporter destabilization hit call (RIOK1; 10 µM),kinase-Nluc reporter destabilization hit call (RIPK1; 10 µM),kinase-Nluc reporter destabilization hit call (RIPK2; 10 µM),kinase-Nluc reporter destabilization hit call (ROR2; 10 µM),kinase-Nluc reporter destabilization hit call (RPS6KA1; 10 µM),kinase-Nluc reporter destabilization hit call (SPHK1; 10 µM),kinase-Nluc reporter destabilization hit call (SRC; 10 µM),kinase-Nluc reporter destabilization hit call (STK24; 10 µM),kinase-Nluc reporter destabilization hit call (STK38; 10 µM),kinase-Nluc reporter destabilization hit call (SYK; 10 µM),kinase-Nluc reporter destabilization hit call (TEC; 10 µM),kinase-Nluc reporter destabilization hit call (TYK2; 10 µM),kinase-Nluc reporter destabilization hit call (ULK3; 10 µM),kinase-Nluc reporter destabilization hit call (YES1; 10 µM),kinase-Nluc reporter destabilization hit call (ZAK; 10 µM),kinase-Nluc reporter destabilization hit call (ZAP70; 10 µM),number of time points (CDK4; 10 µM),number of time points (CDK7; 10 µM),kinase-Nluc reporter destabilization hit call (RET; 2.5 µM),kinase-Nluc reporter destabilization hit call ([1]; 2.5 µM),kinase-Nluc reporter destabilization hit call (RIOK1; 2.5 µM),kinase-Nluc reporter destabilization hit call (RIPK1; 2.5 µM),kinase-Nluc reporter destabilization hit call (RIPK2; 2.5 µM),kinase-Nluc reporter destabilization hit call (ROR2; 2.5 µM),kinase-Nluc reporter destabilization hit call (RPS6KA1; 2.5 µM),kinase-Nluc reporter destabilization hit call (SPHK1; 2.5 µM),kinase-Nluc reporter destabilization hit call (SRC; 2.5 µM),kinase-Nluc reporter destabilization hit call (STK24; 2.5 µM),kinase-Nluc reporter destabilization hit call (STK38; 2.5 µM),kinase-Nluc reporter destabilization hit call (SYK; 2.5 µM),kinase-Nluc reporter destabilization hit call (TEC; 2.5 µM),kinase-Nluc reporter destabilization hit call (TYK2; 2.5 µM),kinase-Nluc reporter destabilization hit call (ULK3; 2.5 µM),kinase-Nluc reporter destabilization hit call (YES1; 2.5 µM),kinase-Nluc reporter destabilization hit call (ZAK; 2.5 µM),kinase-Nluc reporter destabilization hit call (ZAP70; 2.5 µM),number of time points (CDK4; 2.5 µM),number of time points (CDK7; 2.5 µM)
Cn1ncc(Cl)c1-c1cc(C(=O)N[C@H](CN)Cc2cccc(F)c2)sc1Cl [Afuresertib],inactive: 0,inactive: 0,inactive: 0,inactive: 0,inactive: 0,inactive: 0,inactive: 0,inactive: 0,inactive: 0,inactive: 0,inactive: 0,inactive: 0,inactive: 0,inactive: 0,inactive: 0,inactive: 0,inactive: 0,inactive: 0,0,0,–,–,–,–,–,–,–,–,–,–,–,–,–,–,–,–,–,–,–,–
CCN(CC)Cc1ccc(OC)c(-c2cc3c(-c4ccc(C(=O)O)c(C(C)C)c4)ccnc3[nH]2)c1,inactive: 0,inactive: 0,inactive: 0,inactive: 0,inactive: 0,inactive: 0,inactive: 0,inactive: 0,inactive: 0,inactive: 0,inactive: 0,inactive: 0,inactive: 0,inactive: 0,inactive: 0,inactive: 0,inactive: 0,inactive: 0,0,0,inactive: 0,inactive: 0,inactive: 0,inactive: 0,inactive: 0,inactive: 0,inactive: 0,inactive: 0,inactive: 0,inactive: 0,inactive: 0,inactive: 0,inactive: 0,inactive: 0,inactive: 0,inactive: 0,inactive: 0,inactive: 0,0,0
CC(C)Nc1cc(-c2c[nH]c(C(=O)N[C@H](CO)c3cccc(Cl)c3)c2)c(Cl)cn1 [Ulixertinib (hydrochloride)],inactive: 0,inactive: 0,inactive: 0,inactive: 0,inactive: 0,inactive: 0,inactive: 0,inactive: 0,inactive: 0,inactive: 0,inactive: 0,inactive: 0,inactive: 0,inactive: 0,inactive: 0,inactive: 0,inactive: 0,inactive: 0,0,0,–,–,–,–,–,–,–,–,–,–,–,–,–,–,–,–,–,–,–,–
CC(=O)c1c(C)c2cnc(Nc3ccc(N4CCNCC4)cn3)nc2n(C2CCCC2)c1=O [Palbociclib (monohydrochloride)],inactive: 0,inactive: 0,inactive: 0,inactive: 0,inactive: 0,inactive: 0,inactive: 0,inactive: 0,inactive: 0,inactive: 0,inactive: 0,inactive: 0,inactive: 0,inactive: 0,inactive: 0,inactive: 0,inactive: 0,inactive: 0,0,0,–,–,–,–,–,–,–,–,–,–,–,–,–,–,–,–,–,–,–,–
CC(C)NC[C@@H](C(=O)N1CCN(c2ncnc3c2[C@H](C)C[C@H]3O)CC1)c1ccc(Cl)cc1 [Ipatasertib],inactive: 0,inactive: 0,inactive: 0,inactive: 0,inactive: 0,inactive: 0,inactive: 0,inactive: 0,inactive: 0,inactive: 0,inactive: 0,inactive: 0,inactive: 0,inactive: 0,inactive: 0,inactive: 0,inactive: 0,inactive: 0,0,0,–,–,–,–,–,–,–,–,–,–,–,–,–,–,–,–,–,–,–,–
COc1ccc2c(c1)C(c1ccc(F)cc1)=C(CN1CCCC1)CO2 [AX-024 hydrochloride],inactive: 0,inactive: 0,inactive: 0,inactive: 0,inactive: 0,inactive: 0,inactive: 0,inactive: 0,inactive: 0,inactive: 0,inactive: 0,inactive: 0,inactive: 0,inactive: 0,inactive: 0,inactive: 0,inactive: 0,inactive: 0,0,0,–,–,–,–,–,–,–,–,–,–,–,–,–,–,–,–,–,–,–,–
C[C@H](Nc1cc(-c2cnn(C)c2)cc(Nc2cnccn2)n1)c1ccc(F)cc1 [Ilginatinib],–,–,–,–,–,–,–,–,–,–,–,–,–,–,–,–,–,–,–,–,inactive: 0,inactive: 0,inactive: 0,inactive: 0,inactive: 0,inactive: 0,inactive: 0,inactive: 0,inactive: 0,inactive: 0,inactive: 0,inactive: 0,inactive: 0,inactive: 0,inactive: 0,inactive: 0,inactive: 0,inactive: 0,0,3
Cc1ccc(NC(=O)c2ccc(CN3CCN(C)CC3)cc2)cc1Nc1nc(-c2cccnc2)cs1 [Masitinib (mesylate)],–,–,–,–,–,–,–,–,–,–,–,–,–,–,–,–,–,–,–,–,inactive: 0,inactive: 0,inactive: 0,inactive: 0,inactive: 0,inactive: 0,inactive: 0,inactive: 0,inactive: 0,inactive: 0,inactive: 0,inactive: 0,inactive: 0,inactive: 0,inactive: 0,inactive: 0,inactive: 0,inactive: 0,0,1
C#Cc1cccc(Nc2ncnc3cc(OCCOC)c(OCCOC)cc23)c1 [Erlotinib (Hydrochloride)],inactive: 0,inactive: 0,inactive: 0,inactive: 0,inactive: 0,inactive: 0,inactive: 0,inactive: 0,inactive: 0,inactive: 0,inactive: 0,inactive: 0,inactive: 0,inactive: 0,inactive: 0,inactive: 0,inactive: 0,inactive: 0,0,0,–,–,–,–,–,–,–,–,–,–,–,–,–,–,–,–,–,–,–,–
COc1cc2nccc(Oc3ccc(NC(=O)C4(C(=O)Nc5ccc(F)cc5)CC4)cc3)c2cc1OC [Cabozantinib (S-malate)],inactive: 0,inactive: 0,inactive: 0,inactive: 0,inactive: 0,inactive: 0,inactive: 0,inactive: 0,inactive: 0,inactive: 0,inactive: 0,inactive: 0,inactive: 0,inactive: 0,active: 1,inactive: 0,inactive: 0,inactive: 0,0,0,–,–,–,–,–,–,–,–,–,–,–,–,–,–,–,–,–,–,–,–
Cc1cc(Nc2ncc(Cl)c(Nc3ccccc3S(=O)(=O)C(C)C)n2)c(OC(C)C)cc1C1CCNCC1 [Ceritinib dihydrochloride],–,–,–,–,–,–,–,–,–,–,–,–,–,–,–,–,–,–,–,–,inactive: 0,inactive: 0,inactive: 0,inactive: 0,inactive: 0,inactive: 0,inactive: 0,inactive: 0,inactive: 0,inactive: 0,inactive: 0,inactive: 0,inactive: 0,inactive: 0,inactive: 0,inactive: 0,inactive: 0,inactive: 0,0,0
Cc1cccc(-c2[nH]c(CNc3ccccc3F)nc2-c2ccc3ncnn3c2)n1 [Vactosertib],–,–,–,–,–,–,–,–,–,–,–,–,–,–,–,–,–,–,–,–,inactive: 0,inactive: 0,inactive: 0,inactive: 0,inactive: 0,inactive: 0,inactive: 0,inactive: 0,inactive: 0,inactive: 0,inactive: 0,inactive: 0,inactive: 0,inactive: 0,inactive: 0,inactive: 0,inactive: 0,inactive: 0,0,0
Nc1ncnc2c1c(-c1ccc(Oc3ccccc3)cc1)nn2[C@@H]1CCCNC1 [IBT6A (hydrochloride)],–,–,–,–,–,–,–,–,–,–,–,–,–,–,–,–,–,–,–,–,inactive: 0,inactive: 0,inactive: 0,inactive: 0,inactive: 0,inactive: 0,inactive: 0,inactive: 0,inactive: 0,inactive: 0,inactive: 0,inactive: 0,inactive: 0,inactive: 0,inactive: 0,inactive: 0,inactive: 0,inactive: 0,0,0
COc1cc2nccc(Oc3ccc(NC(=O)C4(C(=O)Nc5ccc(F)cc5)CC4)cc3)c2cc1OC [Cabozantinib],–,–,–,–,–,–,–,–,–,–,–,–,–,–,–,–,–,–,–,–,inactive: 0,inactive: 0,inactive: 0,inactive: 0,inactive: 0,inactive: 0,inactive: 0,inactive: 0,inactive: 0,inactive: 0,inactive: 0,inactive: 0,inactive: 0,inactive: 0,inactive: 0,inactive: 0,inactive: 0,inactive: 0,0,3
CNc1ncc2cc(-c3ccc(-c4cccc(C)n4)cc3Cl)c(=O)n(C[C@H]3OC[C@H](N)CO3)c2n1,inactive: 0,inactive: 0,inactive: 0,inactive: 0,inactive: 0,inactive: 0,inactive: 0,inactive: 0,inactive: 0,inactive: 0,inactive: 0,inactive: 0,inactive: 0,inactive: 0,inactive: 0,inactive: 0,inactive: 0,inactive: 0,0,0,–,–,–,–,–,–,–,–,–,–,–,–,–,–,–,–,–,–,–,–
O=C(c1ccc(F)c(F)c1Nc1ccc(I)cc1F)N1CC(O)([C@@H]2CCCCN2)C1 [Cobimetinib],inactive: 0,inactive: 0,inactive: 0,inactive: 0,inactive: 0,inactive: 0,inactive: 0,inactive: 0,inactive: 0,inactive: 0,inactive: 0,inactive: 0,inactive: 0,inactive: 0,inactive: 0,inactive: 0,inactive: 0,inactive: 0,0,1,–,–,–,–,–,–,–,–,–,–,–,–,–,–,–,–,–,–,–,–
COc1ccc(S(=O)(=O)N(CCO)c2ccccc2CN(C)C/C=C/c2ccc(Cl)cc2)cc1 [KN-93 (phosphate)],–,–,–,–,–,–,–,–,–,–,–,–,–,–,–,–,–,–,–,–,inactive: 0,inactive: 0,inactive: 0,inactive: 0,inactive: 0,inactive: 0,inactive: 0,inactive: 0,inactive: 0,inactive: 0,inactive: 0,inactive: 0,inactive: 0,inactive: 0,inactive: 0,inactive: 0,inactive: 0,inactive: 0,0,0
